Data published in PubChem BioAssay AID504834 (National Center for Advancing Translational Sciences (NCATS), 2011).
Hit rate of the full screen: of about 320,000 compounds, about 22,000 (6.9%) were called active. Inconclusive results, whose numbers are uncertain, are shown with a selection of clear calls. Calls come from the whole dose curve; as a rule, active = well fitted inhibition curve with a large enough effect; inconclusive = small, poorly fitted or top-dose-only effect, or another doubt; inactive = no such curve, though single readings can be large or run the other way. Where the call is inconclusive, the potency comes from a doubtful curve fit.
Potency is the fitted concentration of half-maximal effect.

Experiment: Primary qHTS for delayed death inhibitors of the malarial parasite plastid, 96 hour incubation
Settings: P. falciparum luciferase reporter growth; series mostly up to 28.7 µM
Summary of the method: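 Delayed-death screen, second-generation endpoint: infected erythrocytes, 2% hematocrit, 0.05% parasitemia final; 96 hours at 37 C, 5% CO2; luciferase detection reagent; luminescence decrease equals reduced growth.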
With CC(c1ccccc1)N1C(=O)c2cccnc2C1=O (stereo unspecified) the Potency was inconclusive: 14.7 µM [inhibitor, single point].
For COc1ccc(COC(=O)c2cc([N+](=O)[O-])ccc2N2CCOCC2)cc1F, the Potency was inconclusive: 10.4 µM [inhibitor, single point].
For CCC1S/C(=N/N=C/c2cccs2)NC1=O (stereo unspecified), the Potency was inconclusive: 3.29 µM [inhibitor, partial curve, poor fit].
For CCC(=O)c1ccc(OCC(=O)Nc2ccc3nc(C)sc3c2)cc1, the Potency was inconclusive: 10.4 µM [inhibitor, partial curve].
With O=C(NCCSCc1ccco1)Nc1cccc(Cl)c1 the Potency was inconclusive: 10.4 µM [inhibitor, partial curve, poor fit].
With CN(C)c1oc(-c2ccco2)nc1S(=O)(=O)c1ccc(Br)cc1 the Potency was inconclusive: 11.7 µM [inhibitor, single point].
For Cc1cc(-n2c(C)cc(C(=O)CSc3ccc4c(c3)OCCO4)c2C)no1, the Potency was inconclusive: 13.1 µM [inhibitor, partial curve, poor fit].
With CCOC(=O)NNc1nncc2ccccc12 the Potency was “inactive”.
With COc1ccccc1NS(=O)(=O)c1cc(N/C(=N\S(=O)(=O)c2ccccc2)c2ccc(F)cc2)ccc1Cl the Potency was active: 13.1 µM.
With O=C(Cn1c(NCCO)nc2ccccc21)c1cccs1 the Potency was inconclusive: 4.65 µM [inhibitor, partial curve].
For Cc1cc(OCC(=O)NCCCN2CCCC2=O)c2c(C)cc(=O)oc2c1, the Potency was inconclusive: 18.5 µM [inhibitor, single point].
With CC1CCCN(S(=O)(=O)c2ccc(NC(=O)C3CCN(C(=O)C(C)(C)C)CC3)cc2)C1 (stereo unspecified) the Potency was active: 6.57 µM.
For CN1C(=O)c2ccc(NC(=O)C3CC3)cc2C1=O, the Potency was “inactive”.
For CN(CC1CCCO1)S(=O)(=O)c1ccc(C(=O)NCc2ccccc2)cc1 (stereo unspecified), the Potency was “inactive”.
In the case of COc1ccc(C(=O)Nc2cccc(C(=O)N/N=C/c3ccc(OC)cc3OC)c2)cc1, the Potency is reported as inconclusive: 18.5 µM [inhibitor, single point].
For CCCCCN(C(=O)CCC(=O)OCC(=O)N(C)c1ccccc1)c1c(N)n(CCCC)c(=O)[nH]c1=O, the Potency was “inactive”.
With Cc1ccc(NC(=O)COC(=O)C2CC2)c(Br)c1 the Potency was “inactive”.
In the case of Cc1cccc(NC(=O)C(Cc2ccccc2)c2nn[nH]n2)c1C (stereo unspecified), the Potency is reported as active: 8.28 µM.
In the case of O=C(c1cc(-c2ccc(Cl)cc2)n[nH]1)N1CCN(C(=O)c2ccco2)CC1, the Potency is reported as inconclusive: 18.5 µM [inhibitor, single point].
For O=C(NCc1ccccc1)C1=C[C@@H](c2ccccc2)C[C@@H](OCc2ccc(CO)cc2)O1, the Potency was active: 9.28 µM.
In the case of CCCc1n[nH]c2c1C(=O)CC(C)(C)C2, the Potency is reported as “inactive”.
In the case of Fc1c(F)c(-n2nnc3ccccc32)c(F)c(F)c1Cl, the Potency is reported as “inactive”.
In the case of COc1ccc(N(CC(=O)Nc2cccc(N(C)S(C)(=O)=O)c2)S(=O)(=O)c2ccc(C)cc2)cc1, the Potency is reported as inconclusive: 4.15 µM [inhibitor, single point].
For O=c1[nH]c2c(s1)C(c1ccccc1)C1C3CCC(C3)C1S2 (stereo unspecified), the Potency was inconclusive: 9.28 µM [inhibitor, partial curve].
With O=C(c1cnn(-c2nc3ccccc3s2)c1)c1ccccc1O the Potency was inconclusive: 18.5 µM [inhibitor, single point].
With O=C(NCCOc1ccc(F)cc1)C1CCC(=O)N(CCN2CCOCC2)C1 (stereo unspecified) the Potency was inconclusive: 2.33 µM [inhibitor, partial curve, poor fit].
With CC(C)C1N(C(=O)N2CCOCC2)CCN1S(=O)(=O)c1ccccc1 (stereo unspecified) the Potency was “inactive”.
In the case of CC1(C)CC(NC(=O)c2ccc(-c3ccc([N+](=O)[O-])cc3)o2)CC(C)(C)N1, the Potency is reported as inconclusive: 8.28 µM [inhibitor, partial curve].
In the case of CSc1nc2ccc(S(=O)(=O)NC3CCCCC3)cc2s1, the Potency is reported as inconclusive: 14.7 µM [inhibitor, single point].
With O=C(OCCOc1ccc(Br)cc1)c1ccc(Cl)c(S(=O)(=O)N2CCOCC2)c1 the Potency was “inactive”.
For CCOc1cccc(/C=N/NC(=O)c2cccnc2)c1O, the Potency was inconclusive: 13.1 µM [inhibitor, single point].
In the case of O=C(Nc1ccccc1)/C(=C\c1ccc(F)cc1)NC(=O)c1ccco1, the Potency is reported as “inactive”.
In the case of Cc1nc2c(=O)[nH]c(=S)n(C)c2nc1C, the Potency is reported as inconclusive: 9.28 µM [inhibitor, partial curve].
With CCN(C(=O)c1cnc(NC(C)C)cc1C(F)(F)F)c1ccc(Cl)cc1Cl the Potency was active: 11.7 µM.
With O=C(NCc1cccc(C(F)(F)F)c1)c1ccc(=O)[nH]c1 the Potency was “inactive”.
In the case of CCOc1cc2c(cc1OCC)C(C(=O)O)C(c1ccc(OC)c(O)c1)N(C)C2=O (stereo unspecified), the Potency is reported as inconclusive: 0.828 µM [inhibitor, full curve, poor fit].
With O=C(CCCC(=O)Nc1cccc(Br)c1)N/N=C/c1cc([N+](=O)[O-])ccc1O the Potency was “inactive”.
With Cc1ccc(N(CC(=O)NCCc2ccccc2)C(=O)CCC(=O)Nc2cc(C)ccn2)cc1 the Potency was “inactive”.
In the case of COc1ccc(-n2cc(-c3ccc(OC(F)F)cc3)[n+]3c2CCCCC3)cc1, the Potency is reported as inconclusive: 0.586 µM [inhibitor, full curve, poor fit].
With COc1ccc(C2=CC(c3ccc(C)cc3)n3nnnc3N2)cc1 (stereo unspecified) the Potency was inconclusive: 1.65 µM [inhibitor, partial curve, poor fit].
For Cc1ccc(Cl)cc1N1CCN(C(=O)CN(C2CCCCC2)S(C)(=O)=O)CC1, the Potency was active: 10.4 µM.
For COc1ccc(Br)cc1S(=O)(=O)n1ccnc1C, the Potency was “inactive”.
In the case of CCOC(=O)c1[nH]c(C)c(C(=O)Nc2ccccc2C)c1C, the Potency is reported as “inactive”.
With CC(C)(C)c1nnc(NC(=O)CCn2cnc3ccccc3c2=O)s1 the Potency was inconclusive: 18.5 µM [inhibitor, single point].
With CCN(CC)C(=O)COc1ccc(/C=C(\C#N)S(=O)(=O)c2ccccc2)cc1OC the Potency was active: 9.28 µM.
In the case of O=c1[nH]c(C2CCN(S(=O)(=O)c3ccccc3F)CC2)nc2c1nnn2Cc1ccc(OC(F)(F)F)cc1, the Potency is reported as inconclusive: 16.5 µM [inhibitor, single point].
In the case of CCCCCC(C)NC(=O)CN1C(=O)NC(C)(c2ccc3ccccc3c2)C1=O (stereo unspecified), the Potency is reported as inconclusive: 11.7 µM [inhibitor, single point].
With NC(=O)Cn1nc([N+](=O)[O-])nc1Oc1ccc(Br)cc1 the Potency was inconclusive: 2.33 µM [inhibitor, full curve, poor fit].
For CN=C1CC(C)(C)CC(=O)/C1=C(/O)CCC(=O)NC, the Potency was inconclusive: 0.415 µM [inhibitor, partial curve, poor fit].
With CCOC(=O)N1CCN(c2ncnc3c2[nH]c2ccc(OC)cc23)CC1 the Potency was inconclusive: 11.7 µM [inhibitor, single point].
For COc1ccc([N+](=O)[O-])cc1Nc1c2ccccc2nc2ccccc12, the Potency was active: 16.5 µM.
In the case of Cc1cc(C)n(-c2nc(SCC(=O)NCC3CCCO3)c3c4c(sc3n2)CCCC4)n1 (stereo unspecified), the Potency is reported as active: 4.15 µM.
With COc1ccc(Cl)cc1NC(=O)CN1CCc2ccccc2C1 the Potency was inconclusive: 8.28 µM [inhibitor, partial curve, poor fit].
With COc1ccc(C)cc1NC(=O)CN1CCN(c2ccc(F)cc2)CC1 the Potency was inconclusive: 18.5 µM [inhibitor, single point].
With Cc1ccccc1Oc1ccc(NC(=O)C2CC=CCC2C(=O)O)cc1 (stereo unspecified) the Potency was inconclusive: 2.33 µM [inhibitor, partial curve, poor fit].
For COc1ccc(CNC(=O)[C@H](C)[C@@H]2C[C@@]2(C)[C@@H](NC(=O)OCc2ccccc2)c2ccccc2)cc1OC, the Potency was inconclusive: 18.5 µM [inhibitor, partial curve, poor fit].
In the case of O=C1Nc2ccccc2/C1=C/c1cccnc1, the Potency is reported as inconclusive: 9.28 µM [inhibitor, single point].
In the case of NC(=O)C1CCCN(C(=O)c2ccc(NC(=O)c3cccs3)cc2)C1 (stereo unspecified), the Potency is reported as inconclusive: 2.33 µM [inhibitor, full curve, poor fit].
For O=C(CSc1nnc(-c2ccc(O)cc2)n1Cc1ccccc1)NNC(=O)c1ccc(Br)cc1, the Potency was inconclusive: 14.7 µM [inhibitor, single point].
With COc1ccc(NCc2ccc(OC)c(Cn3ccnc3)c2)c(OC)c1 the Potency was “inactive”.
For Nc1nnc(SCC(=O)NC2CCCCC2)n1-c1ccccc1, the Potency was active: 8.28 µM.
In the case of CN(C)CCOCCOc1ccc(Cl)cc1Br, the Potency is reported as inconclusive: 0.0657 µM [inhibitor, full curve, poor fit].
In the case of NS(=O)(=O)c1cccc(NC(=O)Nc2ccccc2)c1, the Potency is reported as “inactive”.
For CCOc1ccc(NC(=O)COc2ccc(C(=O)NCCc3ccccc3)cc2)cc1, the Potency was “inactive”.
With COc1ccc(-c2ccc(NC(=O)c3ccco3)cc2)nn1 the Potency was “inactive”.
For Cc1ccc(N(CC(=O)NCCSCc2ccco2)S(=O)(=O)c2ccc(F)cc2)cc1, the Potency was inconclusive: 18.5 µM [inhibitor, partial curve, poor fit].
In the case of CCn1c(=NC(=O)CSC(C)=O)sc2cc(F)ccc21, the Potency is reported as inconclusive: 5.22 µM [inhibitor, partial curve, poor fit].
In the case of CC(C)(C)C(=O)Nc1ccc(F)cc1[N+](=O)[O-], the Potency is reported as “inactive”.
With COc1cccc(CNC(=O)c2cccc(NC3=NC4CS(=O)(=O)CC4S3)c2)c1 (stereo unspecified) the Potency was “inactive”.
For O=C(/C=C/c1ccc(Cl)c([N+](=O)[O-])c1)Nc1cccnc1, the Potency was inconclusive: 18.5 µM [inhibitor, single point].
For COc1ccc(N2CCN(C(=O)c3ccc(NS(=O)(=O)c4ccc(F)c(F)c4)cc3)CC2)cc1, the Potency was inconclusive: 11.7 µM [inhibitor, single point].
